# In the supplement of paper PMC3334620:
# Whole data set: some 33,000 sequences, median “E-score (-0.5 to 0.5)” near -0.015, cut for the highest 2% near 0.3. This is one part of the list.
# Target: T1, Abf1 (UniProt P14164)
# T1 sequence: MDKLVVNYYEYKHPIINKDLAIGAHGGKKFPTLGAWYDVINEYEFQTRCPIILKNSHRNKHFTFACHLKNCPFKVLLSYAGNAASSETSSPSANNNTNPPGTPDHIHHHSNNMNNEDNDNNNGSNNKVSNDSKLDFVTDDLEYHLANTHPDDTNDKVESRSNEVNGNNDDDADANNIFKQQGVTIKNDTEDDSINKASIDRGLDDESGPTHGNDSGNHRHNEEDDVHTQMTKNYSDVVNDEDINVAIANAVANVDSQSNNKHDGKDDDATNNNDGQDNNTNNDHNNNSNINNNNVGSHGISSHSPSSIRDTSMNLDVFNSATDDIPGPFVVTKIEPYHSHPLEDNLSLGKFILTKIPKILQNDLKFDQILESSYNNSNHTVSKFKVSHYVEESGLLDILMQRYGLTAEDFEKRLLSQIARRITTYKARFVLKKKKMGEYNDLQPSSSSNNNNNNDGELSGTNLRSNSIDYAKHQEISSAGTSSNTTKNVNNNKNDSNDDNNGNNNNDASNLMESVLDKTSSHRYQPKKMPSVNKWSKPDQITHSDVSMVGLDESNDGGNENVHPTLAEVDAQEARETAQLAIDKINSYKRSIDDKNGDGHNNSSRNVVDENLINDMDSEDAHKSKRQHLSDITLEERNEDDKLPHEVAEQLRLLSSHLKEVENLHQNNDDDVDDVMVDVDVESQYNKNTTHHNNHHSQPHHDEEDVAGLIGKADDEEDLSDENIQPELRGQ
# Experiment: PBM E-score (8-mer binding enrichment) (E-score (-0.5 to 0.5)); higher = stronger / more preferred TF binding
# Details: protein concentration: 200 nM; construct: GST-full length
# Method in brief: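 Using PURExpress in vitro transcription/translation, GST-tagged yeast transcription factors were made in full-length or DNA-binding-domain form. These were applied at about 100-200 nM to double-stranded universal all-10-mer Agilent arrays, and bound protein was detected with fluorescent anti-GST. Scans were normalised with masliner before the Universal PBM Analysis Suite assigned E-scores to ungapped eight-base words pooled with their reverse complements.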
row,Sequence,PBM E-score
1,TAGGCCCA,-0.36
2,ACTGCCCG,-0.0649
3,GTTGACTA,-0.164
4,ACATGTAA,0.142
5,AACTCTCT,-0.138
6,GCCTTGGA,-0.00196
7,AGAGGCTG,-0.248
8,AAAGTAGG,0.155
9,TAAATTAA,0.0895
10,ATGTGAAC,-0.0834
11,AGCGCTTA,0.00773
12,ACGACAAC,0.265
13,ATCTAGCA,0.0196
14,GGCGCTTA,-0.192
15,ATATTAAT,0.216
16,CCTTGATA,0.114
17,ATTGCACC,-0.0482
18,ACTGCTTA,-0.158
19,CACCATTA,0.0146
20,AGAGCCAG,-0.192
21,ACCACAGA,-0.0898
22,AAATCGTC,0.347

row,Sequence,PBM E-score
1,ATATGACG,0.243
2,CATCTCGG,0.0152
3,CTAAAGAA,-0.0384
4,ACCGCGGG,-0.173
5,AACGCTTC,-0.0829
6,AACCACCA,-0.263
7,ATGAAAAG,-0.0286
8,CTCTAGAC,-0.077
9,ACATACTA,0.109
10,AGCCGCAT,-0.0289
11,ATCGCAAA,0.0945
12,GAGCACTA,0.0823
13,GCGCTGGA,-0.338
14,TATTGCCA,-0.104
15,ATTCGCTC,0.0285
16,CGAAGTCA,0.2
17,GCTAATCA,0.142
18,AAGATGGA,0.0911
19,GCTGCCCA,-0.162
20,AGCGTTGG,-0.0424
21,GATGTTCC,-0.0259
22,ACAGCTCC,-0.172

row,Sequence,PBM E-score
1,ATTCGTAC,0.408
2,AAGAGATA,0.0962
3,TACAATCA,0.0982
4,AAATGTAG,0.122
5,AATCTTGT,0.147
6,GTCGCAGA,0.112
7,ACCCTCCC,-0.139
8,CCATTTGA,-0.0559
9,CGTGCTAA,0.214
10,GATCGACA,0.013
11,ACGTCAAC,0.0554
12,AACGAAGG,-0.0556
13,CTTCAGTC,-0.07
14,TCTTCGCA,0.00277
15,TACTCCAA,-0.0006
16,GATCAGGC,-0.176
17,ATTGAGTG,-0.00414
18,TCCAAGGA,-0.181
19,AGTCTAGA,-0.087
20,CCTTCAGC,-0.112
21,CCGCGGAG,-0.166
22,CAGACATA,-0.0847

# Shown as tab-separated lines: entries from further up
row	Sequence	PBM E-score
2	AAGAGATA	0.0962
3	TACAATCA	0.0982
4	AAATGTAG	0.122
5	AATCTTGT	0.147
6	GTCGCAGA	0.112
7	ACCCTCCC	-0.139
8	CCATTTGA	-0.0559
9	CGTGCTAA	0.214
10	GATCGACA	0.013
11	ACGTCAAC	0.0554
12	AACGAAGG	-0.0556
13	CTTCAGTC	-0.07
14	TCTTCGCA	0.00277
15	TACTCCAA	-0.0006
16	GATCAGGC	-0.176
17	ATTGAGTG	-0.00414
18	TCCAAGGA	-0.181
19	AGTCTAGA	-0.087
20	CCTTCAGC	-0.112

# Later entries.

row,Sequence,PBM E-score
1,ATACATCA,0.158
2,AAACGGCA,0.213
3,ACTAGCGA,0.216
4,GTCTTCAA,-0.0175
5,CAGAGGTA,-0.128
6,GATGCCGC,-0.168
7,GGATCCAC,-0.0994
8,GGGCTCAA,-0.161
9,AATTCGCA,-0.0529
10,CTAACACC,-0.0811
11,CGAGCTCG,0.286
12,GGCGTAGA,-0.107
13,CGCGTAGC,0.0138
14,CCCTACGG,0.185
15,GATCACGA,0.301
16,ATACTCGC,0.127
17,CTAGAATA,0.0856
18,GACACTAC,-0.0654
19,CATGGTTA,0.0529
20,CGAACCCA,0.0711
